PubChem BioAssay AID1259308 – NCATS – 2017
Assay: 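Knock-downs that increase output of a recombinant reporter protein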 (primary screen). Cell system: human HEK293 embryonic kidney cells stably expressing firefly luciferase (HEK-CMV-Luc2-Hygro). Knock-down reagent: single siRNA against human genes, 0.8 pmol siRNA per well. Timing: 72 h. Measurement: 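Luciferase light (ONE-Glo) measured on one replicate plate set and viability (CellTiter-Glo) on the other, scaled to a negative control siRNA, with robust z-scores and luciferase per cell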. Scale: total luciferase, z-score: higher = more reporter protein produced. Hit rule: 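An siRNA counts as active if its total luciferase robust z-score exceeds 3; genes with two or more such siRNAs out of three were retested with fresh siRNAs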. Calls: active = raised luciferase; inactive = no rise.
Here is a random part of about 59,000 deposited reagents. About 1,510 of them (2.6%) count as active. 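Calls use total luciferase alone and ignore viability, so some active siRNAs may act by altering cell number.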 Reagents against one gene are numbered here. Not all columns of the deposit are shown. Reagent sequences are not shown.

PA2G4 #1
- total luciferase, z-score: -0.48
- Call: inactive

PA2G4 #2
- total luciferase, z-score: 0.471
- Call: inactive

PA2G4 #3
- total luciferase, z-score: -0.339
- Call: inactive

FBXL5 #1
- total luciferase, z-score: 0.561
- Call: inactive

FBXL5 #2
- total luciferase, z-score: 0.455
- Call: inactive

FBXL5 #3
- total luciferase, z-score: -0.311
- Call: inactive

DUXAP10 #1
- total luciferase, z-score: 3.4
- Call: active

DUXAP10 #2
- total luciferase, z-score: 0.207
- Call: inactive

DUXAP10 #3
- total luciferase, z-score: 0.767
- Call: inactive

EXOSC6 #1
- total luciferase, z-score: 0.473
- Call: inactive

EXOSC6 #2
- total luciferase, z-score: 1.81
- Call: inactive

EXOSC6 #3
- total luciferase, z-score: -0.643
- Call: inactive

ANKRD42 #1
- total luciferase, z-score: -1.66
- Call: inactive

ANKRD42 #2
- total luciferase, z-score: -0.716
- Call: inactive

ANKRD42 #3
- total luciferase, z-score: -0.564
- Call: inactive

POU4F2 #1
- total luciferase, z-score: -1.78
- Call: inactive

POU4F2 #2
- total luciferase, z-score: -0.0915
- Call: inactive

POU4F2 #3
- total luciferase, z-score: 1.58
- Call: inactive

KCNG2 #1
- total luciferase, z-score: -0.149
- Call: inactive

KCNG2 #2
- total luciferase, z-score: 1.06
- Call: inactive

KCNG2 #3
- total luciferase, z-score: 3.92
- Call: active

Hits, among the entries above:
DUXAP10 #1
- total luciferase, z-score: 3.4
- Call: active

KCNG2 #3
- total luciferase, z-score: 3.92
- Call: active
